Laboratory results published in publication PMC11277750.
These are yes or no findings as the source states them, for the method shown. Binding seen in cells or lysates may run through a third protein. Some entries that bind do so weakly or less than the wild type. For part of these data: Tags and fused reporters may be left off the sequences shown.

Chains of the proteins cited; added tags and fusions are not shown. Lines headed by an entry give the natural chain unless they say otherwise; changes in a name come on top.
UniProt Q80TN5: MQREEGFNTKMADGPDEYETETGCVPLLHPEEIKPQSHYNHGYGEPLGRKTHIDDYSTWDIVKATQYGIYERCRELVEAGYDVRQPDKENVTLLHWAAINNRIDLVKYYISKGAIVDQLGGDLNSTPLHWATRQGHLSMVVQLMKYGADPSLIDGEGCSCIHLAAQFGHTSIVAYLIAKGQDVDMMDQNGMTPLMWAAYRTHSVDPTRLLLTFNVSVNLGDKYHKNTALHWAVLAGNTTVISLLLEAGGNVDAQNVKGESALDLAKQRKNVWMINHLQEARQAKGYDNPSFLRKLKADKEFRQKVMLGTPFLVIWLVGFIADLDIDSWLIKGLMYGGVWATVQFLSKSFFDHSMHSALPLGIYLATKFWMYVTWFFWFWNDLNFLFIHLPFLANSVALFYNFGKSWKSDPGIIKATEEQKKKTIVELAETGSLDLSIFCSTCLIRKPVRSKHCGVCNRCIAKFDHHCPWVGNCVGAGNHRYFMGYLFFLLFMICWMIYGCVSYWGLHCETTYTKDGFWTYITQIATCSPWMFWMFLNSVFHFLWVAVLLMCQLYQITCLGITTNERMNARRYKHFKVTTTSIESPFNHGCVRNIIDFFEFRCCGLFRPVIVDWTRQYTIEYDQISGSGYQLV
UniProt Q8VDZ4: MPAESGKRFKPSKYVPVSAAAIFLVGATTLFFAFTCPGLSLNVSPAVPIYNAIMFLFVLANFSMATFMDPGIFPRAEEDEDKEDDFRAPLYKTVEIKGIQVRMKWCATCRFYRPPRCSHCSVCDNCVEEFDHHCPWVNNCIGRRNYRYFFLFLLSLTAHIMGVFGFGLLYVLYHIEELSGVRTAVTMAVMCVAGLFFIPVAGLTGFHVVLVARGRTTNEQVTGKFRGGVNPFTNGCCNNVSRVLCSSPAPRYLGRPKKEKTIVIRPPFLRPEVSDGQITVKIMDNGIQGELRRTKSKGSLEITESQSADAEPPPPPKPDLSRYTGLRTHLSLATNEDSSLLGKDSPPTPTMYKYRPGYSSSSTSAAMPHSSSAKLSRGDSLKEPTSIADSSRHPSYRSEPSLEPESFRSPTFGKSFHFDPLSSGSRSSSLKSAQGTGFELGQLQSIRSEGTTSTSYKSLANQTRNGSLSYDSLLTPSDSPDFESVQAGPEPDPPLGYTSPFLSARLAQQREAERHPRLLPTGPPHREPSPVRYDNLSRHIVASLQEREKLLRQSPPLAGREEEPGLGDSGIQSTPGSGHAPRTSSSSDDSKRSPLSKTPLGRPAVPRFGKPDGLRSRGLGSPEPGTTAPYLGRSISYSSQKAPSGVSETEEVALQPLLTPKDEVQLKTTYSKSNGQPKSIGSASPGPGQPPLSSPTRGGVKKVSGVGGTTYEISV
UniProt P59268: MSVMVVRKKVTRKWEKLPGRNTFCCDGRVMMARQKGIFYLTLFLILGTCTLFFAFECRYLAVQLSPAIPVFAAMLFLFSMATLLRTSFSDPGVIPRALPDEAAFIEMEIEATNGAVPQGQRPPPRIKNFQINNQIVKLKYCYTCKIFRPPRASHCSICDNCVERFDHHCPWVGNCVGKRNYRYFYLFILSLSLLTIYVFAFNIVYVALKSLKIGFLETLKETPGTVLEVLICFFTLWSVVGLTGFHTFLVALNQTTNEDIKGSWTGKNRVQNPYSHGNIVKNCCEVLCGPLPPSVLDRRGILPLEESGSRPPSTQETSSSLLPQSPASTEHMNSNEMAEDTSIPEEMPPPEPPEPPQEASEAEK
UniProt Q8BQQ1: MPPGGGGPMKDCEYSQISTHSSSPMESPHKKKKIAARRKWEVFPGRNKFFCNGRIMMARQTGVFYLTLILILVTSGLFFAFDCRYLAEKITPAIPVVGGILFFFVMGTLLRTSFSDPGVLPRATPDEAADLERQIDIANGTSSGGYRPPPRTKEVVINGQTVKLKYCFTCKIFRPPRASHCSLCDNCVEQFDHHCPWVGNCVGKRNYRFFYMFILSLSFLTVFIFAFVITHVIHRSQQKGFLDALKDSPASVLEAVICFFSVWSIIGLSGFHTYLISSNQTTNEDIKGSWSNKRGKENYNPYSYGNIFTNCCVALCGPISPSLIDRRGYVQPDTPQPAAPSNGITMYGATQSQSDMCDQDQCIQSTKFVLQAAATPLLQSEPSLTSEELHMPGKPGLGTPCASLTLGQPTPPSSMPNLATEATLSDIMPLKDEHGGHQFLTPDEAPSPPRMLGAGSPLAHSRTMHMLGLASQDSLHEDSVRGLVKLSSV
UniProt O15105: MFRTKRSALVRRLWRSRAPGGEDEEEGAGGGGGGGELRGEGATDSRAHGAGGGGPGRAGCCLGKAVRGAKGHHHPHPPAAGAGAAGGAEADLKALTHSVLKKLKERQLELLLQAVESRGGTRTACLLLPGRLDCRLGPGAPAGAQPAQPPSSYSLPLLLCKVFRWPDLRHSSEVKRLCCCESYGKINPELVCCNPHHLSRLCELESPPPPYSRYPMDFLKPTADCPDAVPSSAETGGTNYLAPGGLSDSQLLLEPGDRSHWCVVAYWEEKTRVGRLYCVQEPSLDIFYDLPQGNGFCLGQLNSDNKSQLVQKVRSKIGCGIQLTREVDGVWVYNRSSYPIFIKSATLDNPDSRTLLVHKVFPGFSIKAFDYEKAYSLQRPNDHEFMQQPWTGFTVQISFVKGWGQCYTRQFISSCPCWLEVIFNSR

Experiments:
[1] = biological target: HA-tagged wt zDHHC17 (mouse) (UniProt Q80TN5); test: co-IP; HEK293T cells transfected with HA-zDHHC17 constructs and Flag-Smad7 constructs, with or without 5 ng/ml TGF-β1 for 30 min; lysis in 1% Triton X-100, 10% glycerol, 20 mM Tris-HCl pH 7.5, 150 mM NaCl; IP with an HA antibody or control IgG on Dynabeads overnight, IB with Flag or HA antibodies
[2] = biological target: T1, HA-tagged zDHHC12 (mouse) (UniProt Q8VC90); test: co-IP; HEK293 cells co-expressing each of the 23 HA-tagged zDHHC PATs with Flag-Smad7; pull-down with anti-HA magnetic beads, immunoblotting with a Flag antibody
T1 sequence: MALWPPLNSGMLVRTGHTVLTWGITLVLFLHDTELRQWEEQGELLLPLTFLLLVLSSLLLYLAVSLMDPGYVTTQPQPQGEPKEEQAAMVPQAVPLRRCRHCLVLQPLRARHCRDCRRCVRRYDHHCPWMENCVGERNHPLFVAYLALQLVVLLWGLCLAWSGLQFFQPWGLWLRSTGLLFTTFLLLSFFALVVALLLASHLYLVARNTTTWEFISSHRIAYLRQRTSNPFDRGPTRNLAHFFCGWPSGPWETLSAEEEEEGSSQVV

HA-tagged zDHHC5 (mouse) = HA-tagged zDHHC5 (mouse) (UniProt Q8VDZ4); test: as above
HA-tagged zDHHC9 (mouse) = HA-tagged zDHHC9 (mouse) (UniProt P59268); test: as above
HA-tagged zDHHC7 (mouse) = biological target: T2, HA-tagged zDHHC7 (mouse) (UniProt Q91WU6); test: as above
T2 sequence: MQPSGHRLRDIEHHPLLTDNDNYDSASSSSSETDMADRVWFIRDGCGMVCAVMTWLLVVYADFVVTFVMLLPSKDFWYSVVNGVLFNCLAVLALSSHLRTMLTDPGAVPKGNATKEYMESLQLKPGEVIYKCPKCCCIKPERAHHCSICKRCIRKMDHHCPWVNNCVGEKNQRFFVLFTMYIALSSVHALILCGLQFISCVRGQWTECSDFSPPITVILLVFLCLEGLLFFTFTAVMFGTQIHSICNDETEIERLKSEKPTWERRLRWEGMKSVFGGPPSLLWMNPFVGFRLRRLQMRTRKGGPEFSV

[3] = biological target: T3, HA-tagged zDHHC13 (mouse) (UniProt Q9CWU2); test: as above
T3 sequence: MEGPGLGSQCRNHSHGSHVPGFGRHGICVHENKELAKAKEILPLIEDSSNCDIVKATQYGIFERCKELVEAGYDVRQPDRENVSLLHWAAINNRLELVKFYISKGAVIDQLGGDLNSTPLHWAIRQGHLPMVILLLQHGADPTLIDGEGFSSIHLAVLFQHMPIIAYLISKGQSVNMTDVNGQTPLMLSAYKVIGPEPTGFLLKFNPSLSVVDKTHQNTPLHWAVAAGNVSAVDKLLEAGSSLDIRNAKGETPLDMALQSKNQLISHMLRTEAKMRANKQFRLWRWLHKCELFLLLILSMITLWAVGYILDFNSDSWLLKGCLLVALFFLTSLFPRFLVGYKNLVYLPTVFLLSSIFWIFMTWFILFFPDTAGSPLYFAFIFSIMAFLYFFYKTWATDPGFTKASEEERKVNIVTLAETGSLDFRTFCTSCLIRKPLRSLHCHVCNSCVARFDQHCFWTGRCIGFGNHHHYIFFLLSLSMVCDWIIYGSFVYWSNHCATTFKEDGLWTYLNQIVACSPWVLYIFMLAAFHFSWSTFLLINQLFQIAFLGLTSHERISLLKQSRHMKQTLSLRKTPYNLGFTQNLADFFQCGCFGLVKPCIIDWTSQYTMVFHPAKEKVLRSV

[4] = biological target: HA-tagged wt zDHHC17 (mouse) (UniProt Q80TN5); test: as above
[5] = biological target: HA-tagged zDHHC14 (mouse) (UniProt Q8BQQ1); test: as above
HA-tagged zDHHC3 (mouse) = biological target: T4, HA-tagged zDHHC3 (mouse) (UniProt Q8R173); test: as above
T4 sequence: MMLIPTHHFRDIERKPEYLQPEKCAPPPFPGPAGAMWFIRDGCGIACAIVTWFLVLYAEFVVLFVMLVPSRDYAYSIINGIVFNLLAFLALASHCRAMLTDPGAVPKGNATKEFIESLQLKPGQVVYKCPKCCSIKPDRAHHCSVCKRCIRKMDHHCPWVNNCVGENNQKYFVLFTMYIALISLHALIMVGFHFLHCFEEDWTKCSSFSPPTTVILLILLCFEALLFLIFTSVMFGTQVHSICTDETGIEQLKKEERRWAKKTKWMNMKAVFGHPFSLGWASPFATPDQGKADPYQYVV

[6] = biological target: HA-tagged zDHHC17 W130A mutant (UniProt Q80TN5); test: co-IP; HEK293T cells transfected with HA-zDHHC17 constructs and Flag-Smad7 constructs, with or without 5 ng/ml TGF-β1 for 30 min; lysis in 1% Triton X-100, 10% glycerol, 20 mM Tris-HCl pH 7.5, 150 mM NaCl; IP with an HA antibody or control IgG on Dynabeads overnight, IB with Flag or HA antibodies

Measured: binding

FLAG-Smad7FC (fragment C) (from UniProt O15105 204-426) (domain or fragment)
binds: [1]

FLAG-Smad7FN (fragment N) (from UniProt O15105 1-261) (domain or fragment)
binds: [1]

Flag-tagged wt Smad7 (from UniProt O15105 1-426)
binds: all assays above
